In patent US20230348858:

Assays:
[1] = biological target: Brg1 D1 subdomain (Mus musculus) (UniProt Q3TKT4); test: activity assay; details: m6A at A8; no demethylation; binding not measured; purified recombinant protein; protein details: MBP fusion
[2] = biological target: MBP (maltose binding protein) (UniProt P0AEX9); test: activity assay; details: m6A at A8; negative control in demethylation assay; purified recombinant protein; protein details: pMAL vector control, listing gives SEQ 27
[3] = biological target: T1, Snf2 helicase domain (Saccharomyces cerevisiae) (UniProt P22082); test: activity assay; details: m6A at A8; m6A demethylation of m6A-Bmp10 probe; purified recombinant protein; protein details: MBP fusion
T1 sequence (looked up): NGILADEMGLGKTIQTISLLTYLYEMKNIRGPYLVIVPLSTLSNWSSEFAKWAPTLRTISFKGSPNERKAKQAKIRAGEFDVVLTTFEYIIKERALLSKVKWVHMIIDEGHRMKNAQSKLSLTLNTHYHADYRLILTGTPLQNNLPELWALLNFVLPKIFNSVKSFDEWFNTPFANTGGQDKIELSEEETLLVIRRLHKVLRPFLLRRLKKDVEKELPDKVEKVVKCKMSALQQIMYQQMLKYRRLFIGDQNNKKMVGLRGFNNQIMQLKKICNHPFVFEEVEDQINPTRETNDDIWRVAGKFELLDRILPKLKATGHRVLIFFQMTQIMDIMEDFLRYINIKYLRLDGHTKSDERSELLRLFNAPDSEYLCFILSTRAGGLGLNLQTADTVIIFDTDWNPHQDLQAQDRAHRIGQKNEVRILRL

[4] = biological target: Brg1 D2 subdomain (Mus musculus) (UniProt Q3TKT4); test: activity assay; details: m6A at A8; no demethylation; binding not measured; purified recombinant protein; protein details: MBP fusion
[5] = biological target: Brg1 D1D2 H1181A/D1183A H1181A,D1183A (FIG. 18 legend: H1173A/D1175A) (Mus musculus) (UniProt A7Z019); test: activity assay; details: m6A at A8; demethylation disabled; binding not measured; purified recombinant protein; protein details: MBP fusion
[6] = biological target: Brg1 full-length (Mus musculus) (UniProt Q3TKT4); test: activity assay; details: m6A at A8, purified recombinant protein
[7] = biological target: Brg1 D1D2 R973Q (Mus musculus) (UniProt A7Z019); test: activity assay; details: m6A at A8; demethylation abolished; binding not measured; purified recombinant protein; protein details: MBP fusion
[8] = biological target: Brg1 helicase domain D1D2 (Mus musculus) (UniProt Q3TKT4); test: activity assay; details: m6A at A8; m6A demethylation of generic probe; purified recombinant protein; protein details: MBP fusion
[9] = biological target: Brg1 helicase domain D1D2 (Mus musculus) (UniProt Q3TKT4); test: EMSA; details: preferentially bound m6A probe but not the unmethylated version; purified recombinant protein; protein details: MBP fusion; label: 5'-biotin

Sequence: CGGUUGUACACGCUG [m6A-Bmp10 15-mer probe]
- activity on this sequence [1]: not active
- activity on this sequence [2]: not active
- activity on this sequence [3]: active
- activity on this sequence [4]: not active
- activity on this sequence [5]: not active
- activity on this sequence ([6]; m6A demethylation, dot blot): active
- activity on this sequence [7]: not active

Sequence: AUUGUCAACAGCAGC [generic m6A RNA probe]
- activity on this sequence ([6]; m6A demethylation of generic probe): active
- activity on this sequence [8]: active

Sequence: UCGUCAUGGCUGAACUGCGGUUGUACACGCUGGUGCAGAGAGAUCGCAU [Bmp10 RNA control probe unmethylated]
- binding result [9]: no binding

For some of these results: A negative result means that nothing was seen under these conditions. For some of these results: Protein sequences can lack the tags named with them. For some of these results: The exact form of at least one protein or probe is not confirmed.
